This passage reports binding results from patent publication US20080026992A1, “Tyrosine Phosphorylation of Cdk Inhibitor Proteins of the Cip/Kip Family” (priority 2003, published 2008).

Amino acid sequences for entries named in this document (tags omitted). A change or cut given only in a name is not applied to a line headed by its entry. Residues count along the entry.
UniProt P46527: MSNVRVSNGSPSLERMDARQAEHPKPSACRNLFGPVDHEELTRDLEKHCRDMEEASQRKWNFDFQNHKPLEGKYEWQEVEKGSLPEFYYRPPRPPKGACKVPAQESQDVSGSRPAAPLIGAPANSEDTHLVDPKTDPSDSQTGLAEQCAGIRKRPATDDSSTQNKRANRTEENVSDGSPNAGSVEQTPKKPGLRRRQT
UniProt P07948: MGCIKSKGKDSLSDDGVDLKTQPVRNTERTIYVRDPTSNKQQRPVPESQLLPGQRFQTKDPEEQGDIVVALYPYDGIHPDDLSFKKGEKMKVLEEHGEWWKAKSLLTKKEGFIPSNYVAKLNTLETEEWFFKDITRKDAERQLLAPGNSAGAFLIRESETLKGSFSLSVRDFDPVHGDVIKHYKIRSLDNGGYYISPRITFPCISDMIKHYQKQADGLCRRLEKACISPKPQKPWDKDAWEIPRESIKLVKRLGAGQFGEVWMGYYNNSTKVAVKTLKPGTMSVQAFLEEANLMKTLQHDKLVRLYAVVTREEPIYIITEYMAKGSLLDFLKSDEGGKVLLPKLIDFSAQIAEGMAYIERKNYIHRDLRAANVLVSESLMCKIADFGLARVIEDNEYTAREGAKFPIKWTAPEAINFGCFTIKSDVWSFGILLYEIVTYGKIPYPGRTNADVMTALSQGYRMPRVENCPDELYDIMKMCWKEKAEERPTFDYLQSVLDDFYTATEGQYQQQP
UniProt P62993, residues 156-217: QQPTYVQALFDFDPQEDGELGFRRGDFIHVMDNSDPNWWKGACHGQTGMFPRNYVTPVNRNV

No constants are given. Whether binding was seen depends on the method and setting. Some entries that bind do so weakly or less than the wild type.

The target in experiment [1] is p27Kip1, recombinant, unphosphorylated (human) (UniProt P46527). Briefly: direct binding in vitro.
For experiment [2], the target named is tyrosine kinase Lyn (in cells) (UniProt P07948). Briefly: complex formation in vivo (unpublished observations of the inventors).
Experiment [3] has as its target p27Kip1, recombinant, unphosphorylated (human) (UniProt P46527). Briefly: in vitro screen of GST-fused SH3 domains for p27 binding.

For the substance “C-terminal SH3 domain of Grb2 (from UniProt P62993 156-217)”, the binding entry in experiment [1] is recorded as “binds”.
Turning to “mutant of p27 lacking all three tyrosines (tyrosines 74, 88 and 89 replaced by phenylalanine) (from UniProt P46527 1-198)”, in experiment [2], the binding entry is “binds”.
Turning to “SH3 domain of the tyrosine kinase Lyn fused to GST (from UniProt P07948 63-123)”, the binding entry in experiment [3] is “binds”.
